Test results from PubChem BioAssay AID1117319 (Southern Research Institute, 2015).
About 1,500 (0.58%) of roughly 260,000 compounds were called active. This list was built around the results that the source calls inconclusive (neither active nor inactive); the mix of calls is not that of the screen.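 Rule for the calls: active = inhibition above a set limit at one or more doses, reproduced on every date tested; inconclusive = results disagree between test dates, or hit never tested in dose response; inactive = the rest.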

Sequences of proteins named here, by UniProt entry; tags and fusion partners are left off. A change or cut given only in a name is not applied to a line headed by its entry.
UniProt P69720: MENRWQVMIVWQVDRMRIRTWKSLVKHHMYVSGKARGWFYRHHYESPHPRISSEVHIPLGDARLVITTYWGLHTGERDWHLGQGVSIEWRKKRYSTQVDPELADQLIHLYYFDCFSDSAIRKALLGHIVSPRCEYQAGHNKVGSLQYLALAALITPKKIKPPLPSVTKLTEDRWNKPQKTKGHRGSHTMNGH
UniProt P69721: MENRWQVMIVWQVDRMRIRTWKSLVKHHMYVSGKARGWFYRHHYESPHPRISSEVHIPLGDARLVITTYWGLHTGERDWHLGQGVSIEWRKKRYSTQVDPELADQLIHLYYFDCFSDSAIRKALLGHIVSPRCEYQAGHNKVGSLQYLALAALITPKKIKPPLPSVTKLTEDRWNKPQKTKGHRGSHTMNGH
UniProt P69722: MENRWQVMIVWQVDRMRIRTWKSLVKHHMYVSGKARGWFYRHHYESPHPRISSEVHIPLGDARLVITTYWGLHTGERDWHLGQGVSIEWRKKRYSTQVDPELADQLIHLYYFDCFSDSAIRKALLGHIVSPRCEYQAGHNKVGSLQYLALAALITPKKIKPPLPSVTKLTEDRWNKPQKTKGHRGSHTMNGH
UniProt P69723: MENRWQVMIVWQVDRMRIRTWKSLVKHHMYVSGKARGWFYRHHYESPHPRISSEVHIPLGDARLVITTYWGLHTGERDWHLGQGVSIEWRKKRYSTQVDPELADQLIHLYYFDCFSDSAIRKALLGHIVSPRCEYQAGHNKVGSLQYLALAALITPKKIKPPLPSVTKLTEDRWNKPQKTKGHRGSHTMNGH
UniProt Q9HC16: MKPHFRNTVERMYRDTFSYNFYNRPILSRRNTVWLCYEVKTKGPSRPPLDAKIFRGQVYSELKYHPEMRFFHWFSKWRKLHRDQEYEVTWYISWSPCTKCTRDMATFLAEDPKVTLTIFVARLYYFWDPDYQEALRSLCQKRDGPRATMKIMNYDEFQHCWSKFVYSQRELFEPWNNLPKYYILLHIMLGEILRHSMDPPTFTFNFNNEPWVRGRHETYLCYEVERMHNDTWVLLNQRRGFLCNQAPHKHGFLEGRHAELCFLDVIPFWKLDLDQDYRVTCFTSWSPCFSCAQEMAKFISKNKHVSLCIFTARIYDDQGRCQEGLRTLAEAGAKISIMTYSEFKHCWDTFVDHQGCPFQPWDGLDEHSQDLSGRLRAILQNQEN

What follows are compounds tested against Virion infectivity factor (Human immunodeficiency virus type 1 group M subtype B (isolate BH10)) + Virion infectivity factor (Human immunodeficiency virus type 1 group M subtype B (isolate BRU/LAI)) + Virion infectivity factor (Human immunodeficiency virus type 1 group M subtype B (isolate PCV12)) + Virion infectivity factor (Human immunodeficiency virus type 1 group M subtype B (isolate HXB2)) + DNA dC->dU-editing enzyme APOBEC-3G (Homo sapiens) (UniProt P69720+P69721+P69722+P69723+Q9HC16) (assay: inhibitors of Vif binding to APOBEC3G peptide, primary screen, biochemical, TR-FRET, GST-Vif 1-94, biotin-A3G peptide, dose response retest (AID 1117319;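 note: Vif residues 1-94 fused to GST binding biotinylated APOBEC3G peptide 110-148; 0% = full assay without inhibitor and 100% = GST in place of GST-Vif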)). Details: stronger effect = higher value.

SMILES | inhibition
S=C(c1ccc(-c2ccc(Cl)cc2Cl)o1)N1CCCCC1 | inconclusive: 42.4%
COc1ccc(NC(=O)C2CCCNC2)cc1OCC(C)C (configuration not stated) | inconclusive: 64.2%
Nc1nc2sc3c(c2c(=O)s1)CCCC3 | inconclusive: 33.2%
CC1CCCCN1C(=O)COc1ccc(F)cc1 (configuration not stated) | inconclusive: 48.2%
Cc1ccn2c(/C=N/OCc3ccc(F)cc3)c(-c3ccc(Cl)cc3)nc2c1 | inactive: -1.15%
Cn1c(S(=O)(=O)c2ccc([N+](=O)[O-])cc2)nc(Br)c1Br | inconclusive: 34.3%
O=C(c1ccc(NS(=O)(=O)c2cccs2)cc1)N1CCCCC1 | inconclusive: 33.5%
CCc1ccc(CCC(=O)Nc2ccc(S(N)(=O)=O)cc2)o1 | inactive: 68.2%
CCN(CC)C(=O)c1sc2nc(-c3ccc(OC)cc3)cn2c1C | inconclusive: 61.2%
Cc1ccc(NC(=O)c2c(F)cccc2Cl)cc1NS(C)(=O)=O | inconclusive: 47.3%
O=C(COc1ncnc2ccccc12)Nc1ccc(S(=O)(=O)N2CCOCC2)cc1 | inconclusive: 59.5%
CC1(C)CC(=O)C2=C(C1)OC(N)=C(C#N)C2c1ccoc1 (configuration not stated) | inconclusive: 40.1%
CC(=O)Nc1ccc(/C=N/NC(=O)CNC(=O)c2ccccc2)cc1 | inconclusive: 40.6%
O=C(CC12CC3CC(CC(C3)C1)C2)N1CCN(S(=O)(=O)c2cccs2)CC1 | inconclusive: 44.6%
CN1CCN(CC(=O)Nc2nc3c(s2)CCCC3)CC1 | inconclusive: 43.5%
O=C(CN(Cc1ccccc1)S(=O)(=O)c1ccccc1)N/N=C/c1ccc2c(c1)OCO2 | inconclusive: 41.8%
Cc1nc2c(c(=O)c3ccccc3n2C)c(=O)n1-c1ccccc1 | inconclusive: 49.3%
O=C(CCN1C(=O)C2CC=C(Cl)CC2C1=O)Nc1ccccc1O (configuration not stated) | inconclusive: 35.7%
CC(C)c1ccccc1NC(=S)NCc1nc2ccccc2[nH]1 | inconclusive: 48%
CCC(c1ccccc1)c1nc(-c2ccccn2)no1 (configuration not stated) | inconclusive: 36.6%
Cc1ncc(S(=O)(=O)c2ccccc2)c(-c2ccccc2Cl)n1 | inconclusive: 41.9%
CCOc1ccc(-n2nc3c(Cl)nnc(C)c3c2C)cc1 | inconclusive: 42.2%
Cc1csc(NC(=O)CCc2nc3ccccc3s2)n1 | inconclusive: 44.1%

3 consecutive records out of the list so far, for reference:
SMILES | inhibition
CC(=O)Nc1ccc(/C=N/NC(=O)CNC(=O)c2ccccc2)cc1 | inconclusive: 40.6%
O=C(CC12CC3CC(CC(C3)C1)C2)N1CCN(S(=O)(=O)c2cccs2)CC1 | inconclusive: 44.6%
CN1CCN(CC(=O)Nc2nc3c(s2)CCCC3)CC1 | inconclusive: 43.5%

(continued)

SMILES | inhibition
CCN1/C(=C/C(C)=C/c2sc3ccccc3[n+]2CC)Sc2ccccc21 | inactive: -17.9%
Cc1c(C(C)O)nnn1-c1nonc1N (configuration not stated) | inconclusive: 44.2%
CC12CCC(C(N)=O)(c3nc4ccccc4nc31)C2(C)C (configuration not stated) | inconclusive: 33.4%
CCN(CC)S(=O)(=O)c1ccc(C(=O)OC2CCCCC2CN(C)C)cc1 (configuration not stated) | inactive: -1.05%
O=C1c2ccccc2C(=O)N1OCCOCCOCCON1C(=O)c2ccccc2C1=O | inconclusive: 44.2%
O=C(O)CC1S/C(=N/N=C/c2ccc(-c3ccccc3[N+](=O)[O-])o2)NC1=O (configuration not stated) | inconclusive: 42.5%
COc1ccc(OC)c(Nc2nc(-c3cccs3)cs2)c1 | inactive: 3.68%
COc1cc(NC(=O)CCCl)cc(-n2cnnn2)c1 | inconclusive: 38.9%
Cc1sc(NC(=O)/C=C/c2ccco2)c(C(=O)O)c1C | inconclusive: 60.5%
Cc1cccc(CCNS(=O)(=O)c2ccc(S(=O)(=O)NC3CCCC3)cc2)c1 | inconclusive: 36%
O=C(CCn1cccc1)NCc1ccc2c(c1)OCO2 | inconclusive: 35.7%
O=C(CSc1ccc(-c2ccco2)nn1)c1ccccc1 | inconclusive: 37.9%
N=c1c2c3c(sc2nc2n1CCC2)CCCC3 | inconclusive: 47.5%
CCc1ccc(OCC(=O)NCCN(C)C)c(Br)c1 | inconclusive: 33.9%
CCOC(=O)c1cc2n(n1)C(C(F)(F)C(F)(F)F)CC(C)N2 (configuration not stated) | inconclusive: 49.9%
O=c1[nH]nnc2sc3c(c12)CCCC3 | inconclusive: 37.9%
COC(=O)c1ccccc1NC(=O)c1noc2c1CCCC2 | inactive: 3.34%
Cc1noc(C)c1S(=O)(=O)Nc1ccc2c(c1)C(=O)N([C@@H](C)CO)C[C@@H](C)[C@@H](CN(C)CC1CCCCC1)OCCCC[C@@H](C)O2 | inactive: 2.32%
Cc1cc(NC(=O)c2cc(F)c(F)cc2Cl)no1 | inconclusive: 34.3%
COc1ccc(S(=O)(=O)Nc2ccc(S(=O)(=O)Nc3ccc(F)cc3)cc2)cc1C | inconclusive: 46.6%
COc1ccc(C(=O)NCc2nnc(SCC(=O)N3CCc4ccccc43)o2)cc1OC | inconclusive: 37.5%
Cc1cc(C)nc(SCC(=O)Nc2cccc(S(=O)(=O)N(C)C)c2)n1 | inconclusive: 59.4%
CCC1CCCCN1S(=O)(=O)c1ccc(NC(=O)c2cccs2)cc1 (configuration not stated) | inconclusive: 36%

SMILES | inhibition
COc1cc2c(cc1O)C(Cc1ccc(O)cc1)NCC2 (configuration not stated) | inactive: -2.34%
Cc1cc(N2CCN(Cc3cn(C)nc3-c3ccccc3F)CC2)cc(C)n1 | inconclusive: 48.1%
CC1(C)NC(=O)N(CCOCCOc2ccc3ccccc3c2Br)C1=O | inconclusive: 39.3%
Cc1ccc(NC2=NCC(=O)N2C2CCCC2)cc1C | inconclusive: 34.6%
CCCCN1Cc2c(nc3cc(-c4ccccc4)[nH]n3c2=O)C1=O | inconclusive: 43.6%
Cc1ccc(O)c(N=Nc2ccc(S(=O)(=O)N3CCOCC3)cc2)c1 | inconclusive: 38.9%
CCC(C)N1CCN(S(=O)(=O)c2ccc(NC(C)=O)cc2)CC1 (configuration not stated) | inactive: -5.24%
O=C(CN1CC(=O)Oc2ccccc21)OCC(=O)c1cccc(Br)c1 | inactive: 20.7%
CCOC(=O)C1Cc2cc3c(cc2C1=O)CC(C(=O)OCC)C3=O (configuration not stated) | inconclusive: 56.6%
Cc1ccc(CC2S/C(=N/N=C/c3ccco3)NC2=O)cc1 (configuration not stated) | inactive: 4.38%
OC(COc1ccc(OCC(O)CN2CCCCCC2)cc1)CN1CCCCCC1 (configuration not stated) | inconclusive: 41%
C=CCn1c(=O)c2ccc(C(=O)NCc3ccccc3)cc2n(Cc2ccccc2Cl)c1=O | inconclusive: 36.4%
O=C1Cc2ccccc2N1c1c(Cl)cccc1Cl | inconclusive: 38.5%
O=C(CSc1ncnc2scc(-c3ccc(Cl)cc3)c12)NCc1ccc2c(c1)OCO2 | inconclusive: 42.3%
Cc1cccc(-n2ccnc2CN2CCC(CO)(Cc3ccccc3)CC2)c1 | inconclusive: 60.5%
Cn1c(=O)c(=O)n(C)c2cc(S(=O)(=O)N3CCN(c4ccc(F)cc4)CC3)ccc21 | inconclusive: 56.1%
CCN(CC)c1ccc2ccc(=O)oc2c1 | inconclusive: 38.8%
NC(=O)c1oc2ccc(Cl)cc2c1N | inconclusive: 39.8%
CCOc1cc([N+](=O)[O-])cc(/C=C2/NC(=O)N(Cc3ccccc3F)C2=O)c1O | inconclusive: 49.9%
O=C(NC(=S)Nc1ccc(N2CCOCC2)cc1)c1cncc(Br)c1 | inconclusive: 37.8%
CN1CCN(S(=O)(=O)c2ccc(-c3ccccc3)cc2)CC1 | inconclusive: 42.8%
CCc1cccc(NC(=O)CCNS(=O)(=O)c2cccc3nonc23)c1 | inactive: 9.44%
O=C(NCCCc1ccccc1)Nc1cccc(Cl)c1 | inconclusive: 33.5%

SMILES | inhibition
Cc1ccc(S(=O)(=O)Nn2c(C)ccc2C)cc1 | inconclusive: 39.8%
O=C1c2cccc3cccc(c23)C(=O)N1c1nccs1 | inconclusive: 35.8%
COC(=O)c1cc(Br)ccc1NC(=O)CSCc1c(C)noc1C | inconclusive: 62.9%
COc1ccc(N2CSC3=C(C#N)C(c4cc(OC)c(OC)cc4OC)CC(=O)N3C2)c(OC)c1 (configuration not stated) | inconclusive: 44%
Cc1ccc(-c2nc(N=Nc3ccc(O)cc3)n[nH]2)cc1 | inconclusive: 47%
O=C(O)c1ccc(NC(=O)C2CCCCC2)cc1 | inconclusive: 38.3%
CCOC(=O)C1CN(S(=O)(=O)c2ccc(C)cc2)C1 | inconclusive: 59.3%
Cc1ccc(N=Cc2sc(O)c3ccccc23)c(C)c1 | inconclusive: 58.5%
COc1ccc(OC)c(Nc2nc(C3CC3)nc3c2nnn3Cc2ccccc2)c1 | inactive: -2.66%
CSc1nc(C)c(Cc2c(F)cccc2Cl)c(=O)[nH]1 | inconclusive: 42.2%
CCCC1=[N+](CC(C)=O)CCn2c(C)ccc21 | inconclusive: 44.9%
O=C1C=C(NCc2ccc(Cl)c(Cl)c2)CC1 | inconclusive: 35.8%
Clc1ccc(-c2nc(-c3ccccn3)no2)cc1Cl | inconclusive: 45.4%
Cc1cn(-c2ccc(Br)cc2)[nH]c1=O | inconclusive: 33.2%
CC(C)C(O)(C(=O)NNc1ccccc1)C(C)C | inconclusive: 48.1%
NC(=O)CSc1nnc(Cn2c(=O)sc3ccccc32)n1-c1ccccc1 | inconclusive: 40.4%
COC(=O)C1=C(C)NC(=O)/C1=C\c1cc(C)n(-c2cc(C)cc(C)c2)c1C | inconclusive: 42.8%
CC(=O)OCC(=O)[C@@]1(OC(C)=O)[C@@H](C)C[C@H]2[C@@H]3C[C@H](F)C4=CC(=O)C=C[C@]4(C)[C@@]3(F)[C@@H](O)C[C@@]21C | inconclusive: 44.3%
COc1cccc(C(=O)NCC(=O)N/N=C/c2cccs2)c1 | inconclusive: 47.7%
Cc1cc(SCC(=O)OC(C)C(=O)N(C)c2ccccc2)nc2ccccc12 (configuration not stated) | inactive: -7.66%
O=C(NCCN1CCOCC1)c1noc2c1CCc1ccccc1-2 | inconclusive: 33.7%
CCOc1cc(S(=O)(=O)NCCN2CCOCC2)c(C)cc1C | inconclusive: 51.9%
NC(=S)NNC(=O)c1ccccc1 | inconclusive: 35.3%
